PubChem BioAssay AID1224826 | NIAID – 2016
This is one part, drawn at random, of about 17,000 reagents tested. In the full data, about 1,110 (6.6%) were called active. 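Active means lowered or raised reporter signal; replicate intensities are raw and not normalised per plate.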

Purpose: 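Genes that change LPS-induced Tnf promoter activity in mouse macrophages when knocked down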 (primary screen)
System: RAW264.7 G9 macrophages from mouse bearing reporters for p65 (GFP) and the Tnf promoter (mCherry)
Reagent: siRNA pool against mouse genes, 100 nM
Time to read-out: 16 h of LPS stimulation, after 2 days of siRNA transfection
Challenge: bacterial lipopolysaccharide (Salmonella minnesota R595), 10 ng/ml
Measured: 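Nuclear mCherry signal of the Tnf promoter reporter measured by imaging after background removal, scaled to each plate median and turned into robust z-scores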
Reading the numbers: Tnf reporter robust z-score: higher = stronger Tnf promoter reporter signal after LPS; Tnf reporter intensity: higher = stronger Tnf promoter reporter signal
Active means: 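a well counts as active at a score of -1.3 or below (Tlr4 knock-down control median) or above 3 (raised signal); controls and wells holding fewer than 50 cells are excluded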
Meaning of the calls: active = Tnf reporter clearly lowered or raised; inactive = no clear change in Tnf reporter

Tnf reporter robust z-score	fewer than 50 cells in well	Tnf reporter intensity, replicate 1	Tnf reporter intensity, replicate 2	activity call	target gene
-1.16	enough cells in well	178	58.5	inactive	Tpi1 (triosephosphate isomerase 1)
	fewer than 50 cells per well; well left out of calls	22.9	29.3	inactive	St8sia3 (ST8 alpha-N-acetyl-neuraminide alpha-2,8-sialyltransferase 3)
	fewer than 50 cells per well; well left out of calls	77.8	59.3	inactive	Sun5 (Sad1 and UNC84 domain containing 5)
0	enough cells in well	225	195	inactive	Pdzk1 (PDZ domain containing 1)
0.04	enough cells in well	172	195	inactive	Copz2 (coatomer protein complex, subunit zeta 2)
0.81	enough cells in well	229	163	inactive	Tesk2 (testis-specific kinase 2)
1.62	enough cells in well	346	277	inactive	Gtpbp1 (GTP binding protein 1)
	fewer than 50 cells per well; well left out of calls	82	69.8	inactive	Bcl11b (B cell leukemia/lymphoma 11B)
-0.98	enough cells in well	148	143	inactive	Pou6f1 (POU domain, class 6, transcription factor 1)
-0.97	enough cells in well	152	52.8	inactive	Tmed11 (transmembrane p24 trafficking protein 11)
0.02	enough cells in well	177	149	inactive	Krt222 (keratin 222)
-0.19	enough cells in well	226	170	inactive	Pex5 (peroxisomal biogenesis factor 5)
0.57	enough cells in well	237	164	inactive	Slc61a1
	fewer than 50 cells per well; well left out of calls	141	51.6	inactive	Mrpl42 (mitochondrial ribosomal protein L42)
-0.24	enough cells in well	210	190	inactive	Thap12 (THAP domain containing 12)
0.84	enough cells in well	268	236	inactive	Abcb6 (ATP-binding cassette, sub-family B member 6)
	fewer than 50 cells per well; well left out of calls	33.1	41.8	inactive	Vmn1r48 (vomeronasal 1 receptor 48)
-1.88	enough cells in well	83.5	75.7	active	Ptpn3 (protein tyrosine phosphatase, non-receptor type 3)
-0.3	enough cells in well	172	202	inactive	Pnpla7 (patatin-like phospholipase domain containing 7)
1.68	enough cells in well	398	124	inactive	Cyrib (CYFIP related Rac1 interactor B)
-0.73	enough cells in well	158	154	inactive	Tmem62 (transmembrane protein 62)
	fewer than 50 cells per well; well left out of calls	97	55.8	inactive	Pcgf3 (polycomb group ring finger 3)
1.57	enough cells in well	402	232	inactive	H2-M10.5 (histocompatibility 2, M region locus 10.5)
-0.1	enough cells in well	119	76	inactive	Stk32a (serine/threonine kinase 32A)
0.27	enough cells in well	239	224	inactive	Hoxc4 (homeobox C4)
-0.22	enough cells in well	179	88.9	inactive	Ufc1 (ubiquitin-fold modifier conjugating enzyme 1)
-0.66	enough cells in well	160	121	inactive	Podxl2 (podocalyxin-like 2)
-0.22	enough cells in well	213	96.4	inactive	Mrpl24 (mitochondrial ribosomal protein L24)
0.43	enough cells in well	177	185	inactive	Zbtb6 (zinc finger and BTB domain containing 6)
-0.72	enough cells in well	210	90.6	inactive	Anapc13 (anaphase promoting complex subunit 13)
1.18	enough cells in well	453	273	inactive	Rad51 (RAD51 recombinase)
-0.48	enough cells in well	154	149	inactive	Cyp3a11 (cytochrome P450, family 3, subfamily a, polypeptide 11)
-0.47	enough cells in well	223	172	inactive	Matn3 (matrilin 3)
-0.03	enough cells in well	94.4	61.3	inactive	Klk10 (kallikrein related-peptidase 10)
-1.43	enough cells in well	133	103	active	Clta (clathrin light chain A)
0.96	enough cells in well	254	445	inactive	Ghsr (growth hormone secretagogue receptor)
-0.11	enough cells in well	228	139	inactive	Fez2 (fasciculation and elongation protein zeta 2)
0.86	enough cells in well	174	164	inactive	Msantd5l (Myb/SANT DNA binding domain containing 5 like)
0.16	enough cells in well	231	203	inactive	Ccdc40 (coiled-coil domain containing 40)
2.02	enough cells in well	266	170	inactive	Prkrip1 (Prkr interacting protein 1 (IL11 inducible))
0.04	enough cells in well	276	225	inactive	Foxe1 (forkhead box E1)
-1.09	enough cells in well	103	111	inactive	Parp1 (poly (ADP-ribose) polymerase family, member 1)
-1.23	enough cells in well	105	83.9	inactive	Wls (wntless WNT ligand secretion mediator)
	fewer than 50 cells per well; well left out of calls	190	176	inactive	Trim3 (tripartite motif-containing 3)
	fewer than 50 cells per well; well left out of calls	111	13.9	inactive	Spdye4b (speedy/RINGO cell cycle regulator family, member E4B)
	fewer than 50 cells per well; well left out of calls	63.7	58.7	inactive	Ptov1 (prostate tumor over expressed gene 1)
-0.77	enough cells in well	115	126	inactive	A930104D05Rik (RIKEN cDNA A930104D05 gene)
-0.92	enough cells in well	85.7	76	inactive	Zdhhc5 (zinc finger, DHHC domain containing 5)
-1.13	enough cells in well	156	57	inactive	Mrpl33 (mitochondrial ribosomal protein L33)
-0.53	enough cells in well	159	107	inactive	Aldoart2 (aldolase 1 A, retrogene 2)
-0.48	enough cells in well	101	150	inactive	Aftph (aftiphilin)
0.88	enough cells in well	291	101	inactive	Seh1l (SEH1-like (S. cerevisiae)
0.83	enough cells in well	124	239	inactive	Mindy4 (MINDY lysine 48 deubiquitinase 4)
-0.37	enough cells in well	227	172	inactive	Clstn1 (calsyntenin 1)
1.01	enough cells in well	222	232	inactive	Actb (actin, beta)
-1	enough cells in well	190	90.2	inactive	Dtd1 (D-tyrosyl-tRNA deacylase 1)
0	enough cells in well	200	107	inactive	Or4k48 (olfactory receptor family 4 subfamily K member 48)
-0.77	enough cells in well	154	97.1	inactive	Mcrs1 (microspherule protein 1)
